Measured values from article PMC4454308.
No constants are given. Whether binding was seen depends on the method and setting. Binding seen in cells or lysates may run through a third protein. Some binding calls cover weakened binding; strength is not graded here. For some of these results: Where a sequence is shown, tags or fusion partners need not be part of it. Each block holds one molecule with its values, some of them ahead of it.

Amino acid sequences for entries named in this document (tags omitted).
UniProt O60260: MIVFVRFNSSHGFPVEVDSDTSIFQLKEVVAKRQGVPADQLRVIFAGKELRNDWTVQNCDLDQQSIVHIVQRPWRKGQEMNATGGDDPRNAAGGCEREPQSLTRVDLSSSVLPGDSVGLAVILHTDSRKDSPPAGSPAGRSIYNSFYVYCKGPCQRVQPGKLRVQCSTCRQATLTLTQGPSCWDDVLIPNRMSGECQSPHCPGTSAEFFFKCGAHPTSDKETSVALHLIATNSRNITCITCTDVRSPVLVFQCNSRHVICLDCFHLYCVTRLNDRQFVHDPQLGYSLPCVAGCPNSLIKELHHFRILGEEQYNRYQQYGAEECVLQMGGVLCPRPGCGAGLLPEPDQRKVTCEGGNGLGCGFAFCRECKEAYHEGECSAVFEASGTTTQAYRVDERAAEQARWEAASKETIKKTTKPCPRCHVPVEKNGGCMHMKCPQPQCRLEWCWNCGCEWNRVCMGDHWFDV
UniProt Q9JK66: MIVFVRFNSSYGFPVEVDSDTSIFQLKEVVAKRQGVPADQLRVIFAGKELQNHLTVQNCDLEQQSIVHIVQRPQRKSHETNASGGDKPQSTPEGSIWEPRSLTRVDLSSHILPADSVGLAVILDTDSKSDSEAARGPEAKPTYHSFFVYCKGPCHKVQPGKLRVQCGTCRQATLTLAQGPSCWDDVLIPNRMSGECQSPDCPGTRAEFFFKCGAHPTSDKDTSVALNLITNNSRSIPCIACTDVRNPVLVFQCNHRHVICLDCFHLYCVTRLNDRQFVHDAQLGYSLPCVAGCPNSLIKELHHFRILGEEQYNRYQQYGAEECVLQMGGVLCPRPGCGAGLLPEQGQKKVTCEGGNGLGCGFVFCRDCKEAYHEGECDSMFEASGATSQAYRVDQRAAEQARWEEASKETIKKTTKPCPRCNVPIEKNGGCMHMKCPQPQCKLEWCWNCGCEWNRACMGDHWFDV

How the values were obtained:
[1] = molecular target: T1, RTP801 (ectopic, from pCMS-eGFP RTP801) (UniProt Q8VHZ9); assay: co-IP; HEK293 co-transfected with pCMS-eGFP RTP801 and pEGFP-C2-parkin; 24 h later DSP cross-linking for 2 h at 4°C before harvest; IP with anti-RTP801 (normal IgG as control), blot for parkin; beads washed five times with CHAPS buffer (Tris 50 mM pH 7.4, NaCl 150 mM, MgCl2 10 mM, CHAPS 0.4%)
T1 sequence: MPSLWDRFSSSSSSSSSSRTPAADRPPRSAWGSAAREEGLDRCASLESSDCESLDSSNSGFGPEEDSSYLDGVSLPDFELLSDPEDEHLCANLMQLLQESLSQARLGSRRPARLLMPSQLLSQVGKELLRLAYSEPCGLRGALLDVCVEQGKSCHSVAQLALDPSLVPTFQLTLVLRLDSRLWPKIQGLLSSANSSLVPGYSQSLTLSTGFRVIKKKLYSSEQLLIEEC

[2] = molecular target: T2, endogenous RTP801 (neuronal PC12 cells) (rat (endogenous in PC12)) (UniProt Q8VHZ9); assay: co-IP; endogenous proteins in neuronal PC12 cell lysates, cells treated with or without MG132 for 5 h; IP with anti-parkin (protein A) or anti-RTP801 (protein G), anti-GFP as control antibody; overnight at 4°C; beads washed four times with cell lysis buffer; blots for parkin and RTP801
T2 sequence: T1 sequence

[3] = molecular target: GFP-tagged parkin (ectopic, from pEGFP-C2-parkin) (UniProt O60260); assay: co-IP; converse direction: ectopic parkin immunoprecipitated, blot probed for RTP801 (Supplementary Figure S3); cells, antibody and use of DSP not told in the text shown
[4] = molecular target: endogenous parkin (neuronal PC12 cells) (rat (endogenous in PC12)) (UniProt Q9JK66); assay: co-IP; endogenous proteins in neuronal PC12 cell lysates, cells treated with or without MG132 for 5 h; IP with anti-parkin (protein A) or anti-RTP801 (protein G), anti-GFP as control antibody; overnight at 4°C; beads washed four times with cell lysis buffer; blots for parkin and RTP801

- binding [1]: binds
Molecule: GFP-tagged parkin (ectopic, from pEGFP-C2-parkin) (from UniProt O60260 1-465) (enzyme)

- binding [3]: binds
B1: RTP801 (ectopic, from pCMS-eGFP RTP801) (protein, UniProt Q8VHZ9 1-229)
chain: T1 sequence

Continued, molecule first:

Molecule: endogenous parkin (neuronal PC12 cells) (from UniProt Q9JK66 1-465) (enzyme)
- binding [2]: binds

B2: endogenous RTP801 (neuronal PC12 cells) (protein, UniProt Q8VHZ9 1-229)
chain: T1 sequence
- binding [4]: binds
